Results taken from paper PMC3696057.
These are yes or no findings as the source states them, for the method shown. In cells and extracts the contact can be indirect. Some binding calls cover weakened binding; strength is not graded here.

Amino acid sequences for entries named in this document (tags omitted).
UniProt Q8BWG9: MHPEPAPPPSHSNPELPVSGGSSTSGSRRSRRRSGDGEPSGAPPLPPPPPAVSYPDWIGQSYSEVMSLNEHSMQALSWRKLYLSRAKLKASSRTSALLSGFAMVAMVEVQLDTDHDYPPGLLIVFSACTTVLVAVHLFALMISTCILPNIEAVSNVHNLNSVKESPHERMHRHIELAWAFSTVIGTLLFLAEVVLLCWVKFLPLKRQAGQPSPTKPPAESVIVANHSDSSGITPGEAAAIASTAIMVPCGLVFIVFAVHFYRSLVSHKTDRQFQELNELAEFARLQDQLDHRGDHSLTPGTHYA

Molecular target: T1, SPCA2 (secretory pathway Ca2+-ATPase isoform 2) (mouse (endogenous in lactating mammary tissue)) (UniProt A7L9Z8)
T1 sequence: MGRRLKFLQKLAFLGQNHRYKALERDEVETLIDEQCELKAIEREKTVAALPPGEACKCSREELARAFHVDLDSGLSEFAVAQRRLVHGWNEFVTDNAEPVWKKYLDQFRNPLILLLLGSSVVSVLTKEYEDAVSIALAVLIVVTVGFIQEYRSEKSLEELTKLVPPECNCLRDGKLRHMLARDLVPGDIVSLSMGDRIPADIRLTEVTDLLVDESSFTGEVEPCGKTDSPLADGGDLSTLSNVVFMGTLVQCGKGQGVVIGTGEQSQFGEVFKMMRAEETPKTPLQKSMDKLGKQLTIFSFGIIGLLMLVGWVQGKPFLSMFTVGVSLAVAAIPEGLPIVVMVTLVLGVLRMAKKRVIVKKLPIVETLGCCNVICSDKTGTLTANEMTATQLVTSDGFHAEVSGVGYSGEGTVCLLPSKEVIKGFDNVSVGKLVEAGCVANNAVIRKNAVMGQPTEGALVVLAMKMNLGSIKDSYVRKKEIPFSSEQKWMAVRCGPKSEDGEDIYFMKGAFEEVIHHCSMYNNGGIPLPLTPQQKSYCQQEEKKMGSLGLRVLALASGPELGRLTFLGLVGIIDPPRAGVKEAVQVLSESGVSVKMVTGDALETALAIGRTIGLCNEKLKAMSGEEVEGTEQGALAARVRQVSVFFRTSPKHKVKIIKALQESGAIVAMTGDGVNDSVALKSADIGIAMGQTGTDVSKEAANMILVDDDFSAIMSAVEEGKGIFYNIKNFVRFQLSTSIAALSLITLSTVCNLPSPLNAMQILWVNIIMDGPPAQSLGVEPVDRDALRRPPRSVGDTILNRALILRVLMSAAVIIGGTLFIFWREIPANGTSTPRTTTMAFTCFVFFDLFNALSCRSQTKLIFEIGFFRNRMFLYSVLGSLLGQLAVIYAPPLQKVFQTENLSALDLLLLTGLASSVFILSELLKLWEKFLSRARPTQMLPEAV
Assay: co-IP; SPCA2 immunoprecipitated from lactating (Day 5) mouse mammary tissue with polyclonal rabbit anti-hSPCA2 peptide antibody, rabbit IgG as control; Orai1 detected by immunoblotting

binding: binds
Substance: Orai1 (from UniProt Q8BWG9 1-304)
